Reference: PubChem BioAssay AID328 (DTP/NCI, 2004)
The list does not hold the whole screen: it is rich in T/C values a quarter to a half above the control, in often repeated tests (any T/C) and in doses without a T/C. Further doses and runs are listed elsewhere. T/C is the treated group as % of the vehicle group. Some doses have a count of surviving animals in place of a T/C: the source holds a T/C of zero for them, seemingly a mark for toxic or unscored doses. Some survivor counts are full or nearly so, which does not show that the dose was tolerated: the source hardly ever lists a survival T/C far under the control, and the zero likely stands for such cases as well. Survivors were counted at the toxicity check, usually on the fifth day, unless a day is given; later deaths do not show. Schedules are NCI's codes, taken here to give the interval after Q, in days (D) or hours (H), and the number of doses after X. Some entries were tested several times; the values are given in rising order. For survival time, this PubChem deposit counts one and a half times the control or more as active, and values a quarter to a half above the control carry no call in these data; other NCI protocols may use other cut-offs. Some T/C values carry the count of animals alive at the toxicity check (mostly the fifth day); where none is given, no animal had died by that day. Positions of bridges follow the written chain, without caps; N, C: chain ends. Non-standard residues stand in square brackets, D forms with d. Residues, ends and D or L forms follow the SMILES beside them. NMeV = CN[CH](C(=O)O)C(C)C; Sar = CNCC(=O)O

Test system: BDF1 mice, P388 leukemia ip, median survival T/C
Test: NCI In Vivo Anticancer Drug Screen. Data for tumor model P388 Leukemia (intraperitoneal) in B6D2F1 (BDF1) mice
Details: T/C endpoint: median survival time, higher T/C = longer survival
Procedure, shortened: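 Steps: implant the tumour, treat one group with compound and another with vehicle, record survival, then divide treated by control.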

[1] = dose: 100.0 mg/kg/injection, schedule: Q01DX009 (ip), vehicle: Klucel (hydroxypropylcellulose) (HPC)
[2] = dose: 200.0 mg/kg/injection, schedule: Q01DX009 (ip), vehicle: Klucel (hydroxypropylcellulose) (HPC)
[3] = dose: 400.0 mg/kg/injection, schedule: Q04DX003 (ip), vehicle: saline with Tween-80
[4] = dose: 50.0 mg/kg/injection, schedule: Q01DX009 (ip), vehicle: saline with Tween-80
[5] = dose: 20.0 mg/kg/injection, schedule: Q01DX009 (ip), vehicle: saline with Tween-80

In the case of `CN(C)N=Nc1ccccc1C(N)=O`, the T/C (dose: 62.5 mg/kg/injection, schedule: Q01DX009 (ip), vehicle: saline with Tween-80) is reported as 136 % of control, the survivor count (dose: 125.0 mg/kg/injection, schedule: Q01DX009 (ip), vehicle: saline with Tween-80) is reported as 5 of 6 and the survivor count (dose: 250.0 mg/kg/injection, schedule: Q01DX009 (ip), vehicle: saline with Tween-80) is reported as 0 of 6.
For `N#C/C(=C\c1ccncc1)c1ccccc1`, the survivor count (dose: 25.0 mg/kg/injection, schedule: Q01DX009 (ip), vehicle: saline with Tween-80) was 6 of 6 and the survivor count (dose: 400.0 mg/kg/injection, schedule: Q01DX009 (ip), vehicle: saline with Tween-80) was 3 of 6.
In the case of `CCC1(Br)OC1=O` (stereo not given), the T/C (dose: 225.0 mg/kg/injection, schedule: Q01DX009 (ip), vehicle: saline) is reported as 130 % of control.
In the case of `COc1ccc(C(=O)OCCN(CCN(CCOC(=O)c2ccc(OC)cc2)C(=O)c2ccc(OC)cc2)C(=O)c2ccc(OC)cc2)cc1`, the survivor count (dose: 25.0 mg/kg/injection, schedule: Q01DX009 (ip), vehicle: Klucel (hydroxypropylcellulose) (HPC)) is reported as 6 of 6, the survivor count (dose: 50.0 mg/kg/injection, schedule: Q01DX009 (ip), vehicle: Klucel (hydroxypropylcellulose) (HPC)) is reported as 5 of 6 and the survivor count [1] is reported as 5 of 6. For the same compound, the survivor count [2] was 6 of 6 and the survivor count (dose: 400.0 mg/kg/injection, schedule: Q04DX003 (ip), vehicle: Klucel (hydroxypropylcellulose) (HPC)) was 5 of 6.
`CCC(C(=O)O)c1ccccc1` (stereo not given) was tested, and the survivor count (dose: 100.0 mg/kg/injection, schedule: Q01DX009 (ip), vehicle: saline with Tween-80) was 6 of 6.
For `CC(C)SC(=O)C[Si](C)(C)C`, the survivor count [3] was 2 of 6.
`O=C(O)C1CCC[N-]C1.O=C(O)C1CCC[N-]C1.O=C(O)C1CCC[N-]C1.O=C(O)C1CCC[N-]C1.[Cl][Rh][Cl]` (stereo not given) was tested, and the survivor count (dose: 80.0 mg/kg/injection, schedule: Q01DX009 (ip), vehicle: saline) was 4 of 6, the survivor count (dose: 200.0 mg/kg/injection, schedule: Q01DX009 (ip), vehicle: saline) was 6 of 6 and the survivor count (dose: 400.0 mg/kg/injection, schedule: Q01DX009 (ip), vehicle: saline) was 4 of 6.
For `CC1(C)OC2OC(COC(=O)c3ccccc3)C(=O)C2O1` (stereo not given), the survivor count [4] was 6 of 6.
For `CC(C)C1NC(=O)C(N)C(C)OC(=O)C(C(C)C)N(C)C(=O)CN(C)C(=O)C2CCCN2C1=O` (stereo not given) (tested in a mixture with another compound) (H-TVP[Sar][NMeV]; ester 1-C; configuration not given here), the T/C (dose: 0.3 mg/kg/injection, schedule: Q04DX003 (ip), vehicle: saline + alcohol) was 145 % of control, the survivor count (dose: 0.8 mg/kg/injection, schedule: Q01DX009 (ip), vehicle: saline + alcohol) was 7 of 8 and the T/C (dose: 1.2 mg/kg/injection, schedule: Q04DX003 (ip), vehicle: saline + alcohol) was 128 % of control. The survivor count (dose: 2.4 mg/kg/injection, schedule: Q04DX003 (ip), vehicle: saline + alcohol) was 3 of 8 and 5 of 8.
With `COc1cc2c3cc1Oc1c(OC)c(OC)cc4c1C(Cc1ccc(O)c(c1)-c1cc(ccc1OC)CC3N(C)CC2)N(C)CC4` (stereo not given) the survivor count (dose: 0.78 mg/kg/injection, schedule: Q01DX009 (ip), vehicle: Klucel (hydroxypropylcellulose) (HPC)) was 6 of 6, the T/C (dose: 1.56 mg/kg/injection, schedule: Q01DX009 (ip), vehicle: Klucel (hydroxypropylcellulose) (HPC)) was 136 % of control and the T/C (dose: 3.13 mg/kg/injection, schedule: Q01DX009 (ip), vehicle: Klucel (hydroxypropylcellulose) (HPC)) was 134 % of control. For the same compound, the T/C (dose: 6.25 mg/kg/injection, schedule: Q01DX009 (ip), vehicle: Klucel (hydroxypropylcellulose) (HPC)) was 127 % of control, the survivor count (dose: 12.5 mg/kg/injection, schedule: Q01DX009 (ip), vehicle: carboxymethylcellulose (CMC)) was 6 of 6 and the survivor count (dose: 25.0 mg/kg/injection, schedule: Q01DX009 (ip), vehicle: carboxymethylcellulose (CMC)) was 6 of 6.
`COC1OC(COC(C)=O)C(OC(C)=O)C(OC(C)=O)[CH]1[Hg][O]C(C)=O` (stereo not given) was tested, and the survivor count (dose: 12.5 mg/kg/injection, schedule: Q01DX009 (ip), vehicle: saline) was 3 of 6.
For `COc1cc(N(CCCl)CCCl)c(OC)cc1/C=N/NC(=O)CC(N)C(=O)O` (stereo not given), the T/C (dose: 12.5 mg/kg/injection, schedule: Q01DX009 (ip), vehicle: Klucel (hydroxypropylcellulose) (HPC)) was 139 % of control, the T/C (dose: 19.0 mg/kg/injection, schedule: Q04DX003 (ip), vehicle: Klucel (hydroxypropylcellulose) (HPC)) was 145 % of control and the T/C (dose: 29.0 mg/kg/injection, schedule: Q04DX003 (ip), vehicle: Klucel (hydroxypropylcellulose) (HPC)) was 145 % of control. For the same compound, the T/C (dose: 45.0 mg/kg/injection, schedule: Q04DX003 (ip), vehicle: Klucel (hydroxypropylcellulose) (HPC)) was 136 % of control, the survivor count [1] was 4 of 6 and the survivor count [2] was 0 of 6. For the same compound, the survivor count (dose: 300.0 mg/kg/injection, schedule: Q04DX003 (ip), vehicle: Klucel (hydroxypropylcellulose) (HPC)) was 3 of 6 and 5 of 6 and the survivor count (dose: 400.0 mg/kg/injection, schedule: Q01DX009 (ip), vehicle: Klucel (hydroxypropylcellulose) (HPC)) was 0 of 6.
With `CC1OC(=O)C(C(C)C)NC(=O)C(C(C)C)OC(=O)C(C(C)C)NC(=O)C(C)OC(=O)C(C(C)C)NC(=O)C(C(C)C)OC(=O)C(C(C)C)NC(=O)C(C)OC(=O)C(C(C)C)NC(=O)C(C(C)C)OC(=O)C(C(C)C)NC1=O` (stereo not given) the T/C (dose: 5.0 mg/kg/injection, schedule: Q01DX009 (ip), vehicle: Klucel (hydroxypropylcellulose) (HPC)) was 130 % of control, the T/C (dose: 6.5 mg/kg/injection, schedule: Q01DX009 (ip), vehicle: saline) was 146 % of control [5 of 6 alive] and the T/C (dose: 10.0 mg/kg/injection, schedule: Q01DX009 (ip), vehicle: Klucel (hydroxypropylcellulose) (HPC)) was 126 % of control. The survivor count (dose: 50.0 mg/kg/injection, schedule: Q04DX003 (ip), vehicle: Klucel (hydroxypropylcellulose) (HPC)) was 6 of 7 and the survivor count (dose: 75.0 mg/kg/injection, schedule: Q04DX003 (ip), vehicle: Klucel (hydroxypropylcellulose) (HPC)) was 4 of 7.
`CCCCc1ccc(N2C(N)=NC(N)=NC2(C)C)cc1` was tested, and the T/C (dose: 25.0 mg/kg/injection, schedule: Q01DX005 (ip), vehicle: Klucel (hydroxypropylcellulose) (HPC)) was 125 % of control.
`C#CC(C)OCC(C)OC` (stereo not given) was tested, and the T/C (dose: 25.0 mg/kg/injection, schedule: Q04DX003 (ip), vehicle: saline with Tween-80) was 145 % of control.
In the case of `COc1cccc(CC(N)=O)c1OC`, the survivor count (dose: 400.0 mg/kg/injection, schedule: Q04DX003 (ip), vehicle: saline) is reported as 6 of 6.
In the case of `COc1cc2cc3c4cc(OC)c(OC)cc4cc[n+]3cc2cc1OC`, the T/C [5] is reported as 136 % of control, the T/C (dose: 20.0 mg/kg/injection, schedule: Q04DX003 (ip), vehicle: saline) is reported as 129 % of control and the T/C (dose: 40.0 mg/kg/injection, schedule: Q04DX003 (ip), vehicle: saline with Tween-80) is reported as 127 % of control. The T/C (dose: 80.0 mg/kg/injection, schedule: Q01DX009 (ip), vehicle: saline with Tween-80) was 127 % of control and the T/C (dose: 80.0 mg/kg/injection, schedule: Q04DX003 (ip), vehicle: saline with Tween-80) was 136 % of control.
`CCCCCCCCCCCCSCCCCSCCCCCCCCCCCC` was tested, and the survivor count (dose: 400.0 mg/kg/injection, schedule: Q01DX001 (ip), vehicle: saline sonified) was 6 of 6.
In the case of `Nc1nc(=S)c2ncn(C3OC(COC(=O)c4ccccc4)C(OC(=O)c4ccccc4)C3OC(=O)c3ccccc3)c2[nH]1` (stereo not given), the T/C (dose: 8.8 mg/kg/injection, schedule: Q01DX009 (ip), vehicle: saline with Tween-80) is reported as 125 % of control, the T/C [5] is reported as 137 % of control and the T/C (dose: 22.0 mg/kg/injection, schedule: Q01DX009 (ip), vehicle: saline with Tween-80) is reported as 140 % of control. The T/C (dose: 30.0 mg/kg/injection, schedule: Q01DX009 (ip), vehicle: saline with Tween-80) was 137 % of control, the T/C [4] was 136 % of control and the T/C (dose: 66.0 mg/kg/injection, schedule: Q04DX003 (ip), vehicle: saline) was 131 % of control. The T/C (dose: 100.0 mg/kg/injection, schedule: Q04DX003 (ip), vehicle: saline with Tween-80) was 136 % of control, the T/C (dose: 150.0 mg/kg/injection, schedule: Q04DX003 (ip), vehicle: saline) was 136 % of control [5 of 6 alive] and the T/C (dose: 200.0 mg/kg/injection, schedule: Q04DX003 (ip), vehicle: saline with Tween-80) was 127 % of control. The survivor count [3] was 6 of 6.
